Experimental data as given in paper PMC9275970.
Results are given in words; binding and its absence hold for the method and conditions named. In cells and extracts the contact can be indirect. Some binding calls cover weakened binding; strength is not graded here. Tags and fused reporters may be left off the sequences shown. Blank lines part the entries; values can stand above or below the molecule they belong to.

By UniProt entry, the sequences of proteins in these tests, tags left out.
UniProt P17302: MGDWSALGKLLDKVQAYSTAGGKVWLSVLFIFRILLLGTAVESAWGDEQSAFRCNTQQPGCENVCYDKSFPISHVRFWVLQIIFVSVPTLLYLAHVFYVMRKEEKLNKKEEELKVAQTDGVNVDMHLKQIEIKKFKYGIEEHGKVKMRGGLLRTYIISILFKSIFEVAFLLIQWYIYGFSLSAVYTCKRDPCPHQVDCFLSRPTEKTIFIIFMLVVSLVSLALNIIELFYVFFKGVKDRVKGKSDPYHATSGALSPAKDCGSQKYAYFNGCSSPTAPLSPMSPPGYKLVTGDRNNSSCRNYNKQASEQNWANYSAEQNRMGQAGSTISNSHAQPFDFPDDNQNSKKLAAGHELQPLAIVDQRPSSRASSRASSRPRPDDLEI

Assays:
[1] = target: T1, Disheveled binding antagonist of β-catenin 1 (DACT1) (human (endogenous in iPSC-CMs)) (UniProt Q9NYF0); assay: co-IP; iPSC-CM lysate (500 μL, 1 μg/μL) with 5 μg rabbit anti-DACT1 antibody overnight at 4°C, protein A/G agarose beads 2 h at 4°C; blots with anti-β-catenin and anti-connexin 43; nonspecific IgG as control
T1 sequence: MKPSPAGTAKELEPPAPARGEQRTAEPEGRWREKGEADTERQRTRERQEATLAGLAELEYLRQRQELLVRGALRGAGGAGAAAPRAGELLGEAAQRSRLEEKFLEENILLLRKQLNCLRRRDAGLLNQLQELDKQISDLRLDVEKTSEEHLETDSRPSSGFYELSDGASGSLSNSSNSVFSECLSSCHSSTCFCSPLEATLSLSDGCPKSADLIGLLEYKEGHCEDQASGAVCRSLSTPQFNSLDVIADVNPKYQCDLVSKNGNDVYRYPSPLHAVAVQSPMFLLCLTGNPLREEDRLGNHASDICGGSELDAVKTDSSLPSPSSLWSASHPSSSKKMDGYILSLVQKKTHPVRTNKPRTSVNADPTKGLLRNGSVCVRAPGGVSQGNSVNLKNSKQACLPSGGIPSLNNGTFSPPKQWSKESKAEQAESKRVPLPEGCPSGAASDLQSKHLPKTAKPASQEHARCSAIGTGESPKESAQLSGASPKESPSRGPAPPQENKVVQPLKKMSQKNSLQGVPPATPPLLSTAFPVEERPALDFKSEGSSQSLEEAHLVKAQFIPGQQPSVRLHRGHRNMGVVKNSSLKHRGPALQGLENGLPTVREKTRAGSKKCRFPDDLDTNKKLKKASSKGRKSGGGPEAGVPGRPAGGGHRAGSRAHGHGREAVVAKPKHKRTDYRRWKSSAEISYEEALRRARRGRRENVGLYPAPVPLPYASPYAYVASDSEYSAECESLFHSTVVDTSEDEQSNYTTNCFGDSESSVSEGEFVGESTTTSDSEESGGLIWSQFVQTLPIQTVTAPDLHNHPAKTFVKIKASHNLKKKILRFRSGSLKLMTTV

[2] = target: T2, Disheveled binding antagonist of β-catenin 1 (DACT1) (human (endogenous in iPSC-CMs)), Q9NYF0; assay: as above; details: remark: other sources report otherwise
T2 chain: T1 sequence

binding [1]: binds
Molecule: connexin 43 (from UniProt P17302 1-382)

binding [2]: binds
B1: β-catenin, P35222 1-781 (protein)
chain: MATQADLMELDMAMEPDRKAAVSHWQQQSYLDSGIHSGATTTAPSLSGKGNPEEEDVDTSQVLYEWEQGFSQSFTQEQVADIDGQYAMTRAQRVRAAMFPETLDEGMQIPSTQFDAAHPTNVQRLAEPSQMLKHAVVNLINYQDDAELATRAIPELTKLLNDEDQVVVNKAAVMVHQLSKKEASRHAIMRSPQMVSAIVRTMQNTNDVETARCTAGTLHNLSHHREGLLAIFKSGGIPALVKMLGSPVDSVLFYAITTLHNLLLHQEGAKMAVRLAGGLQKMVALLNKTNVKFLAITTDCLQILAYGNQESKLIILASGGPQALVNIMRTYTYEKLLWTTSRVLKVLSVCSSNKPAIVEAGGMQALGLHLTDPSQRLVQNCLWTLRNLSDAATKQEGMEGLLGTLVQLLGSDDINVVTCAAGILSNLTCNNYKNKMMVCQVGGIEALVRTVLRAGDREDITEPAICALRHLTSRHQEAEMAQNAVRLHYGLPVVVKLLHPPSHWPLIKATVGLIRNLALCPANHAPLREQGAIPRLVQLLVRAHQDTQRRTSMGGTQQQFVEGVRMEEIVEGCTGALHILARDVHNRIVIRGLNTIPLFVQLLYSPIENIQRVAAGVLCELAQDKEAAEAIEAEGATAPLTELLHSRNEGVATYAAAVLFRMSEDKPQDYKKRLSVELTSSLFRTEPMAWNETADLGLDIGAQGEPLGYRQDDPSYRSFHSGGYGQDALGMDPMMEHEMGGHHPGADYPVDGLPDLGHAQDLMDGLPPGDSNQLAWFDTDL
